Measurements as given in paper PMC11894074.

Sequences of proteins named here, by UniProt entry; tags and fusion partners are left off. Residues count along the entry.
UniProt P35869, residues 11-848: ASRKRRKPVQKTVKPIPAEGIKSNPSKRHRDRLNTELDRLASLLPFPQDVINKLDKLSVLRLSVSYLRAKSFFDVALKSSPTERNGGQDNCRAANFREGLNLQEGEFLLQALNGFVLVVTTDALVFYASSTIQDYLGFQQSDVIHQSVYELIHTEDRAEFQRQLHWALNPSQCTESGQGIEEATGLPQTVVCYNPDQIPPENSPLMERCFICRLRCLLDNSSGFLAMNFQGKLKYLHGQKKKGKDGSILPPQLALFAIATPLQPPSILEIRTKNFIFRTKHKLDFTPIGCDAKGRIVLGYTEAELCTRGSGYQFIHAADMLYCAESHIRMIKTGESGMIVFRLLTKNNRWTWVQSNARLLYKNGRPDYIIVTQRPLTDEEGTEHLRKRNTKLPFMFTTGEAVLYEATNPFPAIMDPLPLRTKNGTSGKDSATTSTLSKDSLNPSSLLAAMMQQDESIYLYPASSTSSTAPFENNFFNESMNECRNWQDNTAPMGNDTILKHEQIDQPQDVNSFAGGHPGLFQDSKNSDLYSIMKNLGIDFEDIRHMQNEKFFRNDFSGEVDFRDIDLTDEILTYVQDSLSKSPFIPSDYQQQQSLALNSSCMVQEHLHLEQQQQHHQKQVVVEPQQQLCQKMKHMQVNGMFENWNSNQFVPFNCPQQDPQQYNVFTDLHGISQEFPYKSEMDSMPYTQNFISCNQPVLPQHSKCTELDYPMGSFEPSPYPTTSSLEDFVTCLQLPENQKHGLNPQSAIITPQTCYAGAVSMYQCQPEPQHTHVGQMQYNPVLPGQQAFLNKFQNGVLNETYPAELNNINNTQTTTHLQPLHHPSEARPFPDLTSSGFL

T1: aldo-keto reductase family 1 member C1 (AKR1C1) (human (endogenous in QBC939)) (UniProt Q04828)
T1 sequence: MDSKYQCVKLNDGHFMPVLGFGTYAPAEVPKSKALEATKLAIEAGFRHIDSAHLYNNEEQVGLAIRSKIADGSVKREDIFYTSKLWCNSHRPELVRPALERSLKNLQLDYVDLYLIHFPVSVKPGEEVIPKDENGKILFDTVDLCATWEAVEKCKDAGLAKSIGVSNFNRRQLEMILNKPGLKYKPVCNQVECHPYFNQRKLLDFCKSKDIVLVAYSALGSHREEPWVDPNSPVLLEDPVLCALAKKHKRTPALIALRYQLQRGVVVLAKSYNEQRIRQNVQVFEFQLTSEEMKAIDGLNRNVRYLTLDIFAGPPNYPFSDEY


Assays:
[1] = molecular target: T1, aldo-keto reductase family 1 member C1 (AKR1C1) (human (endogenous in QBC939)); test: affinity purification with mass spectrometry; Co-IP of AKR1C1 followed by LC-MS/MS to identify potential binding proteins; cells and antibody not stated
[2] = molecular target: T1, aldo-keto reductase family 1 member C1 (AKR1C1) (human (endogenous in QBC939)); test: as above; remark: listed apart in the source

Row | binding [1] | binding [2] | Molecule
1 | binds | – | aryl-hydrocarbon receptor (AHR) (from UniProt P35869 11-848)
2 | – | binds | cytochrome P450 1B1 (CYP1B1) (enzyme, UniProt Q16678 1-543) MGTSLSPNDPWPLNPLSIQQTTLLLLLSVLATVHVGQRLLRQRRRQLRSAPPGPFAWPLIGNAAAVGQAAHLSFARLARRYGDVFQIRLGSCPIVVLNGERAIHQALVQQGSAFADRPAFASFRVVSGGRSMAFGHYSEHWKVQRRAAHSMMRNFFTRQPRSRQVLEGHVLSEARELVALLVRGSADGAFLDPRPLTVVAVANVMSAVCFGCRYSHDDPEFRELLSHNEEFGRTVGAGSLVDVMPWLQYFPNPVRTVFREFEQLNRNFSNFILDKFLRHCESLRPGAAPRDMMDAFILSAEKKAAGDSHGGGARLDLENVPATITDIFGASQDTLSTALQWLLLLFTRYPDVQTRVQAELDQVVGRDRLPCMGDQPNLPYVLAFLYEAMRFSSFVPVTIPHATTANTSVLGYHIPKDTVVFVNQWSVNHDPLKWPNPENFDPARFLDKDGLINKDLTSRVMIFSVGKRRCIGEELSKMQLFLFISILAHQCDFRANPNEPAKMNFSYGLTIKPKSFKVNVTLRESMELLDSAVQNLQAKETCQ

Where two headings read alike, the source gives them in different places. Results are given in words; binding and its absence hold for the method and conditions named. Binding seen in cells or lysates may run through a third protein. A yes stands for co-enrichment or nearness to the bait. Other partners may have been found.
